At least one structure is not confirmed: it was looked up by name or label, or the drawing left a doubt.
Test system: chick embryo retinal cell neurogenic cultures E6
Assay: Incorporation of BrdU (entry into S phase) in chick embryo retinal cell neurogenic cultures E6
Format: cell-based
Conditions: 100 ng/ml NGF, inhibitor used at 7 μM
Procedure: These cells respond to NGF by inducing cell cycle reactivation that leads to somatic tetraploidy (endoreduplication) (Morillo et al., 2010). A. Western blot with anti-active p38^MAPK (P-p38^MAPK) and anti-p38^MAPK in nuclear extracts of the mentioned neurogenic cultures treated for the indicated time with 100 ng/ml NGF. The normalized ratios between P-p38^MAPK and p38^MAPK levels are indicated at the bottom. B. Immunohistochemical staining with anti-active p38^MAPK antibodies (P-p38^MAPK) in the mentioned neurogenic cultures treated with 100 ng/ml NGF for 20 minutes. The nuclei were labeled with bisbenzimide (Bisb.). […] C. Luciferase assay in extracts of chick embryo retinal cell neurogenic cultures E6 transfected with a plasmid expressing luciferase under the control of cMyc gene promoter, known for its response to E2F during G1/S transition, and another plasmid with the constitutive expression of β-galactosidase. The luciferase/β-galactosidase ratio values are depicted as “luciferase activity”. […] This effect is blocked with selective p38^MAPK inhibitor SB203580 (used at 5 μM). D. Incorporation of BrdU to indicate entry into S phase in chick embryo retinal cell neurogenic cultures E6.
A. Luciferase activity analyzed as described in FIG. 2C. […] Luciferase activity analyzed as described in FIG. 2C.

With `Oc1c2ccccc2c2c3c(cccc13)N=N2` [SP600125, reference compound] the “effect on NGF-induced increase in the proportion of cells in S phase (BrdU)” value was “but not by”.

From patent US9567384B2, “Phosphorylation on the Thr-248 and/or Thr-250 residues of transcription factor E2F4 as a therapeutic target in pathological processes associated with somatic polyploidy” (CONSEJO SUPERIOR DE INVESTIGACIONES CIENTIFICAS (CSIC), priority 2011, dated 2017)
